{"source": "patent US8796245B2", "about": "(TetraPhase Pharmaceuticals, Inc., priority 2008, dated 2014)", "type_in_all_cases": "cell-based", "key": {"[1]": {"tested_on": "S. aureus ATCC 13709 (SA100, MSSA, Smith strain)", "experiment": "Minimum inhibitory concentration assay, SA100", "details": "control compounds, numeric MIC; 0.016 means 0.016 or lower", "procedure": "(§1) Frozen bacterial strains were thawed and subcultured onto Mueller Hinton Broth (MHB) or other appropriate media (Streptococcus requires blood and Haemophilus requires hemin and NAD). Following incubation overnight, the strains were subcultured onto Mueller Hinton Agar and again incubated overnight. […] Isolated colonies were selected to prepare a starting inoculum equivalent to a 0.5 McFarland standard. The starting inoculum was diluted 1:125 using MHB for further use. Test compounds were prepared by dilution in sterile water to a final concentration of 5.128 mg/mL. Antibiotics (stored frozen, thawed and used within 3 hours of thawing) and compounds were further diluted to the desired working concentrations.\n(§2) The assays were run as follows. Fifty μL of MHB was added to wells 2-12 of a 96-well plate. One hundred […] of appropriately diluted antibiotics was added to well 1. Fifty μL of antibiotics was removed from well 1 and added to well 2 and the contents of well 2 mixed by pipetting up and down five times. Fifty μL of the mixture in well 2 was removed and added to well 3 and mixed as above. Serial dilutions were continued in the same manner through well 12. […] The plates were then incubated at 37° C. overnight, removed from the incubator and each well was read on a plate reading mirror. The lowest concentration (MIC) of test compound that inhibited the growth of the bacteria was recorded."}, "[2]": {"tested_on": "E. faecalis ATCC 29212 (EF103)", "experiment": "Minimum inhibitory concentration assay, EF103", "details": "control compounds, numeric MIC; 0.016 means 0.016 or lower", "procedure": "as §1, §2"}, "[3]": {"tested_on": "E. faecalis EF159 (tet resistant: tetM)", "experiment": "Minimum inhibitory concentration assay, EF159", "details": "control compounds, numeric MIC; 0.016 means 0.016 or lower", "procedure": "as §1, §2"}, "[4]": {"tested_on": "S. pneumoniae ATCC 49619 (SP106)", "experiment": "Minimum inhibitory concentration assay, SP106", "details": "control compounds, numeric MIC; 0.016 means 0.016 or lower", "procedure": "as §1, §2"}, "[5]": {"tested_on": "S. pneumoniae SP160 (tet resistant: tet M)", "experiment": "Minimum inhibitory concentration assay, SP160", "details": "control compounds, numeric MIC; 0.016 means 0.016 or lower", "procedure": "as §1, §2"}, "[6]": {"tested_on": "E. coli ATCC 25922 (EC107)", "experiment": "Minimum inhibitory concentration assay, EC107", "details": "control compounds, numeric", "procedure": "as §1, §2"}}, "note": "The name of at least one read-out is uncertain.", "data": [{"smiles": "CN(C)c1ccc(O)c2c1C[C@H]1C[C@H]3[C@H](N(C)C)C(O)=C(C(N)=O)C(=O)[C@@]3(O)C(O)=C1C2=O", "note": "[Minocycline]", "values": [{"measurement": "MIC SA100 13709", "setting": "[1]", "result": 0.06}, {"measurement": "MIC EF103 29212", "setting": "[2]", "result": 1}, {"measurement": "MIC EF159 tetM", "setting": "[3]", "result": 16}, {"measurement": "MIC SP106 49619", "setting": "[4]", "result": "≤ 0.016"}, {"measurement": "MIC SP160 tetM", "setting": "[5]", "result": 2}, {"measurement": "MIC", "setting": "[6]", "result": 0.5}]}]}
